The values below come from patent publication US20150038682A1.

By UniProt entry, the sequences of proteins in these tests, tags left out. Residues count along the entry.
UniProt P43489, residues 29-277: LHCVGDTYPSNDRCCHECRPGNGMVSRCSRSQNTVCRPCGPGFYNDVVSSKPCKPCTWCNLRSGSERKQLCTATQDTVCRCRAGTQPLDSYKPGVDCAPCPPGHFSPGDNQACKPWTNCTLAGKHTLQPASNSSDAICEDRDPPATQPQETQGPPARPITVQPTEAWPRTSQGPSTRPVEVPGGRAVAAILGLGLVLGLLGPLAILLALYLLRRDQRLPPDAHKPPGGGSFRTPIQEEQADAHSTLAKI

Results are given in words; binding and its absence hold for the method and conditions named. Some binding calls cover weakened binding; strength is not graded here.

This assay addresses human OX40 on cells (human) (UniProt P43489). The experiment in a line: flow cytometry using OX40-expressing cells.

B1: HuOHX10-IgG1 (antibody, V domains shown)
VH: QVTLRESGPALVKPTQTLTLTCTFSGFSLSTSGVGVGWIRQPPGKALEWLAHIWWDDDKYYNTALKSGLTISKDTSKNQVVLTMTNMDPVDTATYYCARIDWDGIAYWGQGTLVTVSS
VL: EIVLTQSPATLSLSPGERATLSCRASSSVSYMHWYQQKPGQAPRPWIYATSNLASGIPARFSGSGSGTDYTLTISSLEPEDFAVYYCQQWSSNPWTFGGGTKVEIK
For B1, the binding entry was “binds”.
